# Measured values taken from the supplement of paper PMC8728848.
# This is one part of the list.
# B1: OS9-MRH (Homo sapiens), Q13438 (protein)
# chain: IPELLSPMRDAPCLLKTKDWWTYEFCYGRHIQQYHMEDSEIKGEVLYLGYYQSAFDWDDETAKASKQHRLKRYHSQTYGNGSKCDLNGRPREAEVRFLCDEGAGISGDYIDRVDEPLSCSYVLTIRTPRLCPHPLLRPPPSAAPQAI
# Tests used:
# Assay in all cases: glycan array binding signal (z-score within array); higher = stronger binding
# Settings in all cases: glycan notation: IUPAC condensed, linker removed
# [1] = molecular target: Gal(b1-4)GlcNAc(b1-2)Man(a1-6)[GlcNAc(b1-2)Man(a1-3)]Man(b1-4)GlcNAc(b1-4)GlcNAc
# Procedure, shortened: (§1)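 The binding signal is a Z-score computed within each array and averaged over linkers. Arrays of the same protein sequence at different concentrations or buffers were also averaged together. Data originate from 3228 arrays in the Consortium for Functional Glycomics database, kept only where the protein sequence was available.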
# [2] = molecular target: Gal(b1-4)GlcNAc(b1-2)Man(a1-6)[Man(a1-3)]Man(b1-4)GlcNAc(b1-4)GlcNAc
# Procedure, shortened: as §1
# [3] = molecular target: Gal(b1-4)GlcNAc(b1-2)[Gal(b1-4)GlcNAc(b1-4)]Man(a1-3)[Gal(b1-4)GlcNAc(b1-2)Man(a1-6)]Man(b1-4)GlcNAc(b1-4)GlcNAc
# Procedure, shortened: as §1
# [4] = molecular target: Gal(b1-4)GlcNAc(b1-2)[Gal(b1-4)GlcNAc(b1-4)]Man(a1-3)[Gal(b1-4)GlcNAc(b1-2)[Gal(b1-4)GlcNAc(b1-6)]Man(a1-6)]Man(b1-4)GlcNAc(b1-4)GlcNAc
# Procedure, shortened: as §1
# [5] = molecular target: Gal(b1-4)GlcNAc(b1-2)[Gal(b1-4)GlcNAc(b1-4)]Man(a1-3)[GlcNAc(b1-4)][Gal(b1-4)GlcNAc(b1-2)Man(a1-6)]Man(b1-4)GlcNAc(b1-4)GlcNAc
# Procedure, shortened: as §1
# [6] = molecular target: Gal(b1-4)GlcNAc(b1-2)[Gal(b1-4)GlcNAc(b1-4)]Man(a1-3)[GlcNAc(b1-4)][Gal(b1-4)GlcNAc(b1-2)[Gal(b1-4)GlcNAc(b1-6)]Man(a1-6)]Man(b1-4)GlcNAc(b1-4)GlcNAc
# Procedure, shortened: as §1
# [7] = molecular target: Gal(b1-4)GlcNAc(b1-2)[Gal(b1-4)GlcNAc(b1-6)]Man(a1-6)[Gal(b1-4)GlcNAc(b1-2)Man(a1-3)]Man(b1-4)GlcNAc(b1-4)GlcNAc
# Procedure, shortened: as §1
# [8] = molecular target: Gal(b1-4)GlcNAc(b1-2)[Gal(b1-4)GlcNAc(b1-6)]Man(a1-6)[Gal(b1-4)GlcNAc(b1-2)Man(a1-3)]Man(b1-4)GlcNAc(b1-4)[Fuc(a1-6)]GlcNAc
# Procedure, shortened: as §1
# [9] = molecular target: Gal(b1-4)GlcNAc(b1-2)[Gal(b1-4)GlcNAc(b1-6)]Man(a1-6)[GlcNAc(b1-4)][Gal(b1-4)GlcNAc(b1-2)Man(a1-3)]Man(b1-4)GlcNAc(b1-4)GlcNAc
# Procedure, shortened: as §1
# [10] = molecular target: Gal(b1-4)GlcNAc(b1-2)[Gal(b1-4)GlcNAc(b1-6)]Man(a1-6)[GlcNAc(b1-4)][Gal(b1-4)GlcNAc(b1-2)[Gal(b1-4)GlcNAc(b1-4)]Man(a1-3)]Man(b1-4)GlcNAc(b1-4)[Fuc(a1-6)]GlcNAc
# Procedure, shortened: as §1
# [11] = molecular target: Gal(b1-4)GlcNAc(b1-3)Gal(b1-3)GalNAc
# Procedure, shortened: as §1
# [12] = molecular target: Gal(b1-4)GlcNAc(b1-3)Gal(b1-3)GlcNAc
# Procedure, shortened: as §1
# [13] = molecular target: Gal(b1-4)GlcNAc(b1-3)Gal(b1-4)Glc
# Procedure, shortened: as §1
# [14] = molecular target: Gal(b1-4)GlcNAc(b1-3)Gal(b1-4)GlcNAc
# Procedure, shortened: as §1
# [15] = molecular target: Gal(b1-4)GlcNAc(b1-3)Gal(b1-4)GlcNAc(b1-2)Man(a1-3)[Gal(b1-4)GlcNAc(b1-3)Gal(b1-4)GlcNAc(b1-2)Man(a1-6)]Man(b1-4)GlcNAc(b1-4)GlcNAc
# Procedure, shortened: as §1
# [16] = molecular target: Gal(b1-4)GlcNAc(b1-3)Gal(b1-4)GlcNAc(b1-2)Man(a1-3)[Gal(b1-4)GlcNAc(b1-3)Gal(b1-4)GlcNAc(b1-2)Man(a1-6)]Man(b1-4)GlcNAc(b1-4)[Fuc(a1-6)]GlcNAc
# Procedure, shortened: as §1
# [17] = molecular target: Gal(b1-4)GlcNAc(b1-3)Gal(b1-4)GlcNAc(b1-2)[Gal(b1-4)GlcNAc(b1-3)Gal(b1-4)GlcNAc(b1-6)]Man(a1-6)[Gal(b1-4)GlcNAc(b1-3)Gal(b1-4)GlcNAc(b1-2)Man(a1-3)]Man(b1-4)GlcNAc(b1-4)GlcNAc
# Procedure, shortened: as §1
# [18] = molecular target: Gal(b1-4)GlcNAc(b1-3)Gal(b1-4)GlcNAc(b1-2)[Gal(b1-4)GlcNAc(b1-3)Gal(b1-4)GlcNAc(b1-6)]Man(a1-6)[Gal(b1-4)GlcNAc(b1-3)Gal(b1-4)GlcNAc(b1-2)Man(a1-3)]Man(b1-4)GlcNAc(b1-4)[Fuc(a1-6)]GlcNAc
# Procedure, shortened: as §1
# [19] = molecular target: Gal(b1-4)GlcNAc(b1-3)Gal(b1-4)GlcNAc(b1-3)Gal(b1-4)GlcNAc
# Procedure, shortened: as §1
# [20] = molecular target: Gal(b1-4)GlcNAc(b1-3)Gal(b1-4)GlcNAc(b1-3)Gal(b1-4)GlcNAc(b1-2)Man(a1-3)[Gal(b1-4)GlcNAc(b1-3)Gal(b1-4)GlcNAc(b1-3)Gal(b1-4)GlcNAc(b1-2)Man(a1-6)]Man(b1-4)GlcNAc(b1-4)GlcNAc
# Procedure, shortened: as §1
# [21] = molecular target: Gal(b1-4)GlcNAc(b1-3)Gal(b1-4)GlcNAc(b1-3)Gal(b1-4)GlcNAc(b1-2)Man(a1-3)[Gal(b1-4)GlcNAc(b1-3)Gal(b1-4)GlcNAc(b1-3)Gal(b1-4)GlcNAc(b1-2)Man(a1-6)]Man(b1-4)GlcNAc(b1-4)[Fuc(a1-6)]GlcNAc
# Procedure, shortened: as §1
# [22] = molecular target: Gal(b1-4)GlcNAc(b1-3)Gal(b1-4)GlcNAc(b1-3)Gal(b1-4)GlcNAc(b1-2)[Gal(b1-4)GlcNAc(b1-3)Gal(b1-4)GlcNAc(b1-3)Gal(b1-4)GlcNAc(b1-6)]Man(a1-6)[Gal(b1-4)GlcNAc(b1-3)Gal(b1-4)GlcNAc(b1-3)Gal(b1-4)GlcNAc(b1-2)Man(a1-3)]Man(b1-4)GlcNAc(b1-4)[Fuc(a1-6)]GlcNAc
# Procedure, shortened: as §1
binder,measurement,setting,value
B1,glycan array binding signal (z-score),[1],0.899
same,glycan array binding signal (z-score),[2],1.24
same,glycan array binding signal (z-score),[3],-0.776
same,glycan array binding signal (z-score),[4],-1.25
same,glycan array binding signal (z-score),[5],-1.03
same,glycan array binding signal (z-score),[6],0.053
same,glycan array binding signal (z-score),[7],1.01
same,glycan array binding signal (z-score),[8],-0.416
same,glycan array binding signal (z-score),[9],-0.598
same,glycan array binding signal (z-score),[10],-0.043
same,glycan array binding signal (z-score),[11],-1.17
same,glycan array binding signal (z-score),[12],-0.568
same,glycan array binding signal (z-score),[13],-0.032
same,glycan array binding signal (z-score),[14],0.016
same,glycan array binding signal (z-score),[15],1.88
same,glycan array binding signal (z-score),[16],1.84
same,glycan array binding signal (z-score),[17],-0.323
same,glycan array binding signal (z-score),[18],2.17
same,glycan array binding signal (z-score),[19],-0.319
same,glycan array binding signal (z-score),[20],0.47
same,glycan array binding signal (z-score),[21],-0.658
same,glycan array binding signal (z-score),[22],-0.74

# Looked up one by one from the list above (2):
binder,measurement,setting,value
B1,glycan array binding signal (z-score),[21],-0.658
same,glycan array binding signal (z-score),[11],-1.17
